# In all, about 360,000 compounds went through this assay and about 9,100 (2.5%) were called active. The inconclusive results got no clear call from the source; some entries with a clear call stand among them for comparison. Rule as the data show it: active = max response below about -50%; inconclusive = no clear call, values can overlap the other calls; inactive = above that.
# By UniProt entry, the sequences of proteins in these tests, tags left out.
# UniProt P35462, whole entry, looked up: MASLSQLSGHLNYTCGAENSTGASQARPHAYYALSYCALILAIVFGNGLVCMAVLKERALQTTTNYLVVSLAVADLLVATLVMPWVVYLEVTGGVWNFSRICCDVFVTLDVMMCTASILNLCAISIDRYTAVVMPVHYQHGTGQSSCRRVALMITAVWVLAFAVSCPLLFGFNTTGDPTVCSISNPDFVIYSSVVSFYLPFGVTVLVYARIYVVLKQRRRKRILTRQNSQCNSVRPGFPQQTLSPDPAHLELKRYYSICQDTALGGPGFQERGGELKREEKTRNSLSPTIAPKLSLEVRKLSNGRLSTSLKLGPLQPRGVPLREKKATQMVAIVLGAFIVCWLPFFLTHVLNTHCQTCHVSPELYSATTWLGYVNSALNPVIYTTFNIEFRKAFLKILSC
# Target: D(3) dopamine receptor (Homo sapiens) (UniProt P35462)
# Test: qHTS of D3 Dopamine Receptor Antagonist: qHTS
# Settings: D3R cells, DiscoveRx beta-arrestin luminescence, antagonist mode; stronger effect = lower value
# Outline: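 Cells plated overnight at 1500 cells/well, then exposed to library compounds with dopamine controls for 90 minutes at 37 degrees C. DiscoveRx reagent added for 30–60 minutes at room temperature; luminescence read, quantitative HTS format.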
# % is scaled to controls: 0 for no effect and ±100 for the full control effect.
row,SMILES,"max response, negative = inhibition"
1,COc1ccccc1-c1nc(-c2ccccn2)no1,inactive: 2.43%
2,Oc1ccc(-c2nnc(Nc3cccc(O)c3)c3ccccc23)cc1,inactive: -16.2%
3,O=C1CC(c2ccccc2)CC2=C1C=Nc1ccccc1N2 (stereo not drawn),inconclusive: -40.9%
4,COc1ccc(C(=O)N2CCN=C2SCc2cccnc2)cc1OC,inconclusive: -42.3%
5,NS(=O)(=O)c1ccc(NC2=CC(=O)C(=O)c3ccccc32)cc1,active: -53%
6,c1ccc2c3c([nH]c2c1)CCNC3,inconclusive: -32.8%
7,CC1(C(=O)NS(=O)(=O)c2ccccc2Cl)CCN1C(=O)c1cccc(F)c1 (stereo not drawn),inconclusive: -44.5%
8,O=Cc1cc(N=Nc2ccccc2Cl)ccc1O,inconclusive: -39.8%
9,CC(=O)N1CCN(C(=O)CCCNC(=O)c2ccc(Cl)cc2)CC1,inactive: 7.84%
10,CN1CCC(OC(=O)c2ccc(Br)cc2)CC1,inconclusive: -47.2%
11,Cc1ccc(Cl)c(OCCCN(C)Cc2ccccc2)c1,inconclusive: -44.8%
12,CC(=O)NC(CSC(CC(=O)c1ccco1)c1ccc(C)cc1)C(=O)O (stereo not drawn),inconclusive: -33.9%
13,C/C(=N/NC(=O)c1nnn(-c2nonc2N)c1COc1ccccc1)c1ccc(O)cc1,inactive: -3.15%
14,CC1(C)C[C@@H]2C[C@@](C)(CN2C(=O)c2cc(COc3cccc(C(F)(F)F)c3)on2)C1,inactive: -23.6%
15,CCCC(=O)N1CCC1(C)C(=O)NS(=O)(=O)c1cccc(C)c1 (stereo not drawn),inactive: -19%
16,CCOc1ccccc1N(CC(=O)NC1CCCCC1)C(=O)c1nsc(Cl)c1Cl,inconclusive: -42.3%
17,O=C(c1cccc(-c2ccco2)c1)N1CCCC(N2CCN(c3ccc(F)cc3)CC2)C1 (stereo not drawn),inconclusive: -36.3%
18,CCS(=O)(=O)c1ccc(N=Nc2ccc(O)c3ncccc23)c(OC)c1,inconclusive: -30.5%
19,COc1ccccc1C1CCN(Cc2ccccc2Cl)CC1,active: -75.3%
20,CCC1C2CN(C(C)=O)CC=C2C(C#N)=C(N)C1(C#N)C#N (stereo not drawn),inconclusive: -30.2%
21,CN(CCC#N)C(=O)COC(=O)c1nn(-c2ccccc2)c(=O)c2ccccc12,active: -57.8%
22,COc1ccc(C(=O)C2CCCN(Cc3ccc(C#CCCO)cc3)C2)c(OC)c1 (stereo not drawn),active: -116%

# Random excerpt: two compounds from above, in no set order.
row,SMILES,"max response, negative = inhibition"
18,CCS(=O)(=O)c1ccc(N=Nc2ccc(O)c3ncccc23)c(OC)c1,inconclusive: -30.5%
22,COc1ccc(C(=O)C2CCCN(Cc3ccc(C#CCCO)cc3)C2)c(OC)c1 (stereo not drawn),active: -116%

# Next structures follow:

row,SMILES,"max response, negative = inhibition"
1,Oc1ccc(-c2n[nH]c(C(F)(F)F)c2-c2ccccc2)c(O)c1,inactive: 11.1%
2,O=C(C1CCCCC1)N1CCN=C1SCc1cccc([N+](=O)[O-])c1,inconclusive: -37.8%
3,COc1cccc(-c2nc(-c3ccccn3)no2)c1OC,inconclusive: -49.1%
4,O=C(CN1CCN(Cc2ccc3c(c2)OCO3)CC1)c1c[nH]c2ccccc12,inconclusive: -48.7%
5,CCC(C)c1ccccc1NC(=O)C(C)N(C)Cc1cccc(OC)c1 (stereo not drawn),inconclusive: -47.8%
6,CCc1nc2ccc(C(=O)N(C)CCN(C)C)cn2c1N(C)CCC(C)C,inconclusive: -35.8%
7,CCNc1nc(NCC)n2c(SCC(=O)N3CC4(C)CC3CC(C)(C)C4)nnc2n1 (stereo not drawn),inconclusive: -33.4%
8,O=C(CN(Cc1ccccc1)C(=O)CCC(=O)Nc1ccccn1)NCc1ccco1,inconclusive: -35%
9,Cc1ccccc1NC1=C/C(=N\S(=O)(=O)c2cccs2)c2ccccc2C1=O,active: -112%
10,COc1ccc(C2CC(c3ccccc3)=NN2C(=S)Nc2ccccc2)cc1 (stereo not drawn),inconclusive: -36.7%
11,CCn1cc(CN2CCC(C(=O)Nc3cccc(-c4cccc(OC)c4)c3)CC2)c(C)n1,inconclusive: -39.9%
12,CC(C)N=C(NC#N)SCc1ccccc1,inactive: 0.573%
13,Cn1c2ccc(F)cc2c2nnc(SCCN3CCCCC3)nc21,inconclusive: -32.4%
14,COc1ccc(CN2C(=O)c3ccccc3C(/C=N/OCc3ccc(Cl)cc3)C2=O)cc1 (stereo not drawn),inconclusive: -36.5%
15,O=C1CCCCC1CCc1ccncc1 (stereo not drawn),inactive: 21.6%
16,Cc1ccc(-c2nn(-c3ccccc3)cc2/C=N/n2c(-c3cccs3)n[nH]c2=S)cc1,inactive: 3.29%
17,Cc1cc(NC(=O)c2ccc(F)cc2)ccc1NC(=O)c1ccco1,active: -99.6%
18,COc1ccccc1NC(=S)NNC(=O)c1nn(C)c(C)c1Cl,active: -68.8%
20,CC(C)(C)C(=O)OCCNc1nc(-c2ccccc2)nc2ccccc12,inactive: 12.6%
21,Cc1ccnc(NC(=O)c2cccc(S(=O)(=O)N3CCOCC3)c2)c1,inactive: -20.4%
22,COc1cc(C(C(=O)NC2CCCC2)N(C(=O)Cc2cccs2)C2CC2)cc(OC)c1OC (stereo not drawn),inactive: -7.43%

# In the list so far, these contain an aryl thioether with sulfur outside any ring.
row,SMILES,"max response, negative = inhibition"
7,CCNc1nc(NCC)n2c(SCC(=O)N3CC4(C)CC3CC(C)(C)C4)nnc2n1 (stereo not drawn),inconclusive: -33.4%
13,Cn1c2ccc(F)cc2c2nnc(SCCN3CCCCC3)nc21,inconclusive: -32.4%

# Later entries.

row,SMILES,"max response, negative = inhibition"
1,Cc1noc(C)c1COC(=O)CCc1nc2ccccc2s1,inactive: 3.88%
2,O=C(Nc1nc(=O)n(C(=O)C2CC2)s1)c1ccccc1,inactive: -7.07%
3,Nc1cc([N+](=O)[O-])ccc1OCc1ccccc1,inactive: -10.1%
4,CCOc1ccc(NC(=O)C2CCN(C(=O)NCc3ccccc3)CC2)cc1,inconclusive: -32.8%
5,C/C(=N/Nc1nc(C)c(C)s1)c1cccc([N+](=O)[O-])c1,inconclusive: -30.5%
6,CC(C)(C)n1cnnc1Sc1ccc([N+](=O)[O-])cn1,inconclusive: -30.1%
7,CNc1cc(C)nc(-n2nc(C)cc2C)n1,inconclusive: -31.8%
8,COc1nc(-c2ccc(Cl)cc2Cl)nc2ccccc12,inactive: 0.131%
9,NC(=O)c1ccsc1NC(=O)CSc1nncs1,inconclusive: -34.5%
10,Clc1cccc(NCc2nnc(SCc3ccc(Cl)cc3Cl)o2)c1,active: -63.4%
11,O=C(NCC1CCCCC1)C1(CC2CC(c3ccc(Cl)cc3)=NO2)CCNCC1 (stereo not drawn),inconclusive: -40.9%
12,CCOC(=O)C1=CC[C@@H](c2cccc(Br)c2)N(S(=O)(=O)c2ccc(F)cc2)[C@H]1c1cccc(Cl)c1,inactive: -16.2%
13,COc1ccc(NC(=O)CN2CCCCCC2)cc1OC,inconclusive: -36.3%
14,CC(C)C[C@@H](CNCC(=O)[C@H](Cc1ccccc1)NC(=O)c1[nH]cnc1C(=O)N[C@H](CN)CC(C)C)NC(=O)c1nc[nH]c1C(=O)N[C@@H](CC(=O)O)C(=O)O,inconclusive: -32.3%
15,O=[N+]([O-])c1ccc(C[n+]2cccc3ccc4cccnc4c32)cc1,inactive: 0.15%
16,Cc1ccc(N=C2NC(=O)S/C2=C\c2ccco2)cc1,inconclusive: -45.3%
17,O=C(CC1(O)C(=O)Nc2cc(Cl)cc(Cl)c21)c1ccncc1 (stereo not drawn),inconclusive: -33.9%
18,C=CCOc1c(Br)cc(/C=N/NC(=O)Cc2ccc(C(F)(F)F)cc2[N+](=O)[O-])cc1OC,inconclusive: -36.3%
19,C=CCNC(=O)c1cc(-c2ccccc2O)on1,inconclusive: -35.2%
20,O=C(c1c[nH]c2ccccc12)N1CCN(Cc2ccccc2)CC1,inactive: -15.4%
21,COc1ccc(-n2nc(C(=O)c3cccs3)cc(-c3nc4ccccc4[nH]3)c2=N)cc1,active: -55.7%
22,CCCOc1ccc(F)cc1-c1cc(C(=O)Nc2ccc(C(C)C)cc2)[nH]n1,inconclusive: -35.9%

# Of the compounds above, 2 have a tert-butyl group:
row,SMILES,"max response, negative = inhibition"
20,CC(C)(C)C(=O)OCCNc1nc(-c2ccccc2)nc2ccccc12,inactive: 12.6%
6,CC(C)(C)n1cnnc1Sc1ccc([N+](=O)[O-])cn1,inconclusive: -30.1%

# (listing goes on)

row,SMILES,"max response, negative = inhibition"
1,COc1ccccc1-c1nc(SCC(=O)N2CCC(C(N)=O)CC2)n[nH]1,inconclusive: -37.2%
2,Cc1c(Cl)cccc1N=C1SCCN1C(=O)CN1C(=O)NC2(CCCC2)C1=O,inactive: 8.5%
4,CCOC(=O)C(C)n1cnc2scc(-c3ccc(C)cc3)c2c1=O (stereo not drawn),inconclusive: -44.6%
5,COc1cc(OC)cc(C(=O)NC2CC3CCC(C2)N3Cc2ccco2)c1 (stereo not drawn),active: -90.5%
6,Cc1onc(C(=O)N2CCN(c3ccccc3F)CC2)c1-c1ccccc1Cl,inconclusive: -40.8%
7,CCn1c(-c2csc3c2CCC(C)C3)n[nH]c1=S (stereo not drawn),inconclusive: -30.8%
8,COc1cc(/C=C2/SC(=O)N(Cc3ccccc3)C2=O)ccc1OCc1ccncc1,inactive: 0%
9,Cc1ccc(Nc2ccc(NCc3ccccc3)nn2)cc1C,inactive: -28.3%
10,OC1(CNCc2ccccc2)C2CC3CC(C2)CC1C3 (stereo not drawn),inconclusive: -32.5%
11,CCN(CC)CCN(C(=O)c1c(F)cccc1F)c1nc2cc(C)cc(C)c2s1,inconclusive: -49.9%
12,COc1ccc2c(c1)OC[C@H]1[C@H]2N2C(=O)c3cc(OC)ccc3NC(=O)[C@@]2(C)[C@H]1c1ccccc1,active: -52.4%
13,O=C(N/N=C/C=C/c1ccccc1)c1cc(C2CC2)[nH]n1,inactive: 6.49%
14,Cc1ccc(C(=O)Nc2nc(-c3ccccc3)c(-c3ccccc3)o2)cc1,active: -84.6%
15,CC(C)(C)OC(=O)C[C@@H]1C/C=C\C[C@@H](CC(=O)N[C@H](CO)Cc2ccccc2)C(=O)NC[C@@H](c2ccccc2)OC1=O,inconclusive: -33.9%
16,CC(=O)NC/C(C)=N\Nc1ccc([N+](=O)[O-])cc1,inactive: -18.7%
17,N#C/C(=N\Nc1cccc([N+](=O)[O-])c1)C(=O)c1ccc(Br)cc1,inconclusive: -31.8%
18,O=c1ccc2ccc(O)cc2o1,inactive: 9.75%
19,CN(c1ccccc1)c1ccc(/C=N/N2CCOCC2)cc1,active: -51.7%
20,Cc1ccc(C2C3=C(CCCC3=O)N=C3c4ccccc4C(=O)C32)cc1 (stereo not drawn),inconclusive: -41.7%
21,CCc1nc2ccc(C(=O)NCc3ccc4c(c3)OCO4)cn2c1N(C)Cc1cccs1,inconclusive: -42.1%
22,C=CCN(c1ccccc1)S(=O)(=O)c1cccc(C(=O)NC2CCC(O)CC2)c1 (stereo not drawn),inconclusive: -46.2%
